PubChem BioAssay AID1671195 – Yale University – 2021
Shown is an unselected part of about 22,000 reagents tested. Over the whole deposit, about 1,510 (6.9%) got an active call. 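Active includes knockdowns raising or lowering LDL uptake; positive z-scores mean more uptake, negative mean less.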 Reagent sequences are not shown.

- Assay: 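Knockdowns that increase or decrease uptake of fluorescent LDL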 (primary screen)
- System: human Huh7 hepatoma cells
- Knock-down reagent: siRNA pool against human genes, 18 nM
- Duration: about 2 to 2.5 days of knockdown, then 8 h LDL uptake
- Treatment: DiI-labelled LDL at 30 µg/ml for 8 h, in lipoprotein-deficient serum medium
- Read-out: 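Fluorescent LDL signal imaged in cells, scaled to the plate median, robust z-score for each replicate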
- Scale: robust z-score: higher = more LDL uptake after knockdown
- Active means: 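Active when two or more replicates show a robust z-score above 2 or below -2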

| gene knocked down | robust z-score, replicate 1 | robust z-score, replicate 2 | robust z-score, replicate 3 | call |
| --- | --- | --- | --- | --- |
| LOC440932 (retired record) | -0.177 | -1.1 | -0.407 | inactive |
| LOC441553 (retired record) | -0.774 | -1.13 | -0.945 | inactive |
| RASGRP3 | -0.534 | -1.07 | -1 | inactive |
| DCX | 1.82 | -0.0996 | 0.865 | inactive |
| FAM81B | -0.706 | -1.9 | -0.475 | inactive |
| LOC439938 (retired record) | -0.854 | -0.877 | -1.12 | inactive |
| SAFB2 | -0.509 | -0.405 | -0.132 | inactive |
| NFKBIA | 2.41 | 1.97 | 3.04 | active |
| YTHDF2 | 2 | 1.85 | 1.79 | inactive |
| ACD | 0.287 | -0.014 | 0.249 | inactive |
| HOXB8 | 1.78 | 1.05 | 2.45 | inactive |
| TNRC6C | -0.458 | -0.66 | -0.113 | inactive |
| RNASEH1 | -1.36 | -0.537 | -1.21 | inactive |
| STON1 | 0.0316 | -0.812 | 1.12 | inactive |
| LRRC37B | -0.215 | -1.14 | -0.828 | inactive |
| CLDN22 | -1.38 | -1.48 | -1.64 | inactive |
| PLA2G3 | -0.878 | -0.025 | -0.674 | inactive |
| CD302 | 2.01 | 1.73 | 2.21 | active |
| MEIS3 | 0.345 | -0.166 | 0.716 | inactive |
| PSMD13 | 1.13 | 0.801 | -0.323 | inactive |
| NBPF7P | -0.183 | 0.556 | 0.33 | inactive |
| OR2S2 | -0.516 | -0.644 | -0.828 | inactive |
| CASP16P | 0.0823 | -0.813 | -0.319 | inactive |
| OR8B4 | 0.639 | 0.46 | 0.418 | inactive |
| FN3KRP | 1.11 | 2.08 | 2.96 | active |
| LOC339693 (retired record) | -0.294 | -0.438 | -0.102 | inactive |
| DEFB127 | -0.922 | -0.467 | -0.182 | inactive |
| SPATA2L | -1.34 | 0.122 | 0.175 | inactive |
| CAMK2A | -0.24 | 0.196 | 0.481 | inactive |
| MYH13 | 1.07 | 0.405 | 0.968 | inactive |
| MYRFL | -0.684 | -0.443 | 0.93 | inactive |
| NDUFAB1 | 0.372 | -0.191 | 0.27 | inactive |
| DNAAF10 | 0.377 | 0.689 | 0.558 | inactive |
| LINC00851 | -0.564 | 0.255 | -0.0945 | inactive |
| GPX5 | -0.681 | -0.162 | -0.509 | inactive |
| STK38L | -0.232 | 0.35 | 0.456 | inactive |
| LOC442198 (retired record) | 0.0568 | 0.885 | 0.584 | inactive |
| HCFC2 | 0.122 | -0.548 | 0.8 | inactive |
| APOO | -0.895 | -0.531 | -1.2 | inactive |
| H2AZP2 | 0.628 | 0.996 | 0.829 | inactive |
| ERICH6B | 0.285 | 0.343 | 0.243 | inactive |
| CCBE1 | 2.13 | 2.05 | 2.81 | active |
| LOC440946 (retired record) | 0.353 | 0.642 | 0.822 | inactive |
| LINC01854 | -0.646 | -0.576 | -0.723 | inactive |
| NAGK | 2.67 | 2.15 | 1.61 | active |
| TMEM176A | 1.42 | -0.0913 | 1.95 | inactive |

Targets listed so far whose target name begins with M or m:
| gene knocked down | robust z-score, replicate 1 | robust z-score, replicate 2 | robust z-score, replicate 3 | call |
| --- | --- | --- | --- | --- |
| MEIS3 | 0.345 | -0.166 | 0.716 | inactive |
| MYH13 | 1.07 | 0.405 | 0.968 | inactive |
| MYRFL | -0.684 | -0.443 | 0.93 | inactive |
